PubChem BioAssay AID652243 – Drosophila RNAi Screening Center, 2013

Aim: 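Fly regulators of androgen-dependent reporter output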 (primary screen)
Cell system: Drosophila S2R+ cells
Reagent: long dsRNA against Drosophila genes
Timing: 72 h (48 h, then 24 h hormone)
Conditions: synthetic androgen R1881 at 10 nM for 24 h
Measurement: 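Per-well raw luminescence of the androgen-driven firefly reporter and of the Renilla control, two replicates each, without normalisation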
Reading the numbers: firefly reporter light: higher = more light from androgen-responsive reporter; Renilla control light: higher = more constitutive control signal (cell number, transfection)
Active means: 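Hit when the log firefly-to-Renilla ratio dropped or increased by a fixed fold versus the mean of GFP or LacZ controls across duplicate plates; lowering cut given as 1.5 and as 3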
Meaning of the calls: active = hit: reporter lowered or raised; inactive = no hit
In all, the deposit lists about 24,000 reagents; below is an unselected part of those that have a named target and a result. In the full data, 246 (1%) got an active call. 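Plates not normalised; calls are printed but the firefly/Renilla ratio behind them is not deposited; fold cut for lowering reported inconsistently.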 The raw values are shown without normalisation. The numbers tell different reagents against one gene apart. Not stated in the record: the amount of reagent.

target gene	reagent no.	firefly reporter light, replicate 1	firefly reporter light, replicate 2	Renilla control light, replicate 1	Renilla control light, replicate 2	Call
CR30374	1	2.00e5	1.75e5	4.24e5	2.91e5	inactive
CG31548	1	1.03e6	1.08e6	1.39e6	1.01e6	inactive
CG31548	2	5.35e5	5.53e5	4.98e5	5.42e5	inactive
CG3776	1	1.38e6	1.08e6	1.29e6	1.21e6	inactive
CG42570	1	7.67e5	9.15e5	9.38e5	7.84e5	inactive
CG18675	1	1.01e5	1.18e5	1.38e6	1.35e6	inactive
spel1	1	1.68e5	1.89e5	1.78e6	1.81e6	inactive
spel1	2	3.43e5	4.10e5	8.10e5	8.10e5	inactive
Chd1	1	8.49e5	7.95e5	1.73e6	1.24e6	inactive
CG3199	1	2.06e5	1.28e5	2.66e6	1.92e6	inactive
CG3199	2	9.85e5	8.82e5	1.46e6	9.61e5	inactive
Arl6IP1	1	1.17e5	1.08e5	1.87e6	2.26e6	inactive
betaGlu	1	89613	73734	5.20e5	4.30e5	inactive
betaGlu	2	6.40e5	7.36e5	4.85e5	8.28e5	inactive
betaGlu	3	6.96e5	4.24e5	1.74e6	1.70e6	inactive
CG33752	1	1.05e6	7.48e5	1.83e6	1.19e6	inactive
asRNA:CR33945	1	6.14e5	6.23e5	1.96e6	1.32e6	inactive
asRNA:CR33945	2	5.51e5	7.84e5	2.10e6	1.96e6	inactive
CG5790	1	1.39e6	7.07e5	1.86e6	1.06e6	inactive
CG5790	2	3.20e5	3.46e5	6.76e5	7.68e5	inactive
CG5790	3					inactive
Rnf146	1	2.02e5	1.27e5	1.97e6	2.28e6	inactive
E(spl)mbeta-HLH	1	1.49e5	70071	7.86e5	5.77e5	inactive
Ugt37D1	1	1.86e5	1.17e5	1.36e6	1.19e6	inactive
Ugt37D1	2	4.48e5	2.87e5	2.00e6	8.71e5	inactive
Snp	1	3.21e5	3.01e5	2.00e6	1.74e6	inactive
Snp	2	7.66e5	7.03e5	2.04e6	1.99e6	inactive
SKIP	1	2.33e5	2.40e5	3.93e6	3.53e6	inactive
SKIP	2	2.57e5	2.55e5	3.34e6	3.95e6	inactive
SKIP	3	2.50e5	2.38e5	3.33e6	3.28e6	inactive
SKIP	4	5.49e5	5.33e5	1.69e6	1.53e6	inactive
SKIP	5	3.69e5	3.08e5	3.13e6	2.28e6	inactive
Arl2	1	74224	88604	2.34e6	1.34e6	inactive
CG10565	1	51435	42592	2.57e5	2.05e5	inactive
CG7376	1	7.56e5	1.17e6	1.04e6	2.05e6	inactive
CG15458	1	3.01e5	1.26e5	9.40e5	4.14e5	inactive
CG12983	1	2.37e5	2.75e5	2.21e6	2.06e6	inactive
Atat	1	1.01e6	3.65e5	1.08e6	6.16e5	inactive
CG14280	1	2.38e5	2.95e5	3.18e6	3.33e6	inactive
shf	1	1.40e5	1.68e5	2.44e6	2.66e6	inactive
shf	2	5.20e5	3.25e5	1.08e6	4.98e5	inactive
shf	3	8.31e5	6.62e5	1.78e6	1.47e6	inactive
CG8173	1	5.40e5	5.05e5	4.13e6	4.01e6	inactive
CG8173	2					inactive
CG17944	1	1.18e5	1.58e5	3.63e6	3.15e6	inactive
ringer	1	2.86e5	1.54e5	1.71e6	9.56e5	inactive
spz6	1	7.09e5	7.73e5	1.26e6	1.52e6	inactive
Galt	1	6.19e5	1.09e6	1.07e6	1.22e6	inactive
Ankrd49	1	1.74e5	1.24e5	1.63e6	1.38e6	inactive
Ankrd49	2	4.03e5	3.48e5	1.39e6	1.19e6	inactive
Taf9	1	58793	1.36e5	4.54e5	5.03e5	inactive
Taf9	2	3.88e5	4.01e5	7.49e5	6.51e5	inactive
cora	1	69181	72927	8.06e5	8.54e5	inactive
cora	2	5.91e5	4.53e5	1.53e6	1.48e6	inactive
Pde6	1	32419	51254	1.94e5	2.32e5	inactive
Pde6	2	1.59e5	1.24e5	2.01e6	2.16e6	inactive
Pde6	3	1.42e5	76993	1.94e6	2.25e6	inactive
CG8300	1	7.39e5	8.35e5	1.79e6	1.72e6	inactive
CG8300	2	7.25e5	4.12e5	1.33e6	1.17e6	inactive

8 entries already listed, sorted by “firefly reporter light, replicate 1”, ascending:
target gene	reagent no.	firefly reporter light, replicate 1	firefly reporter light, replicate 2	Renilla control light, replicate 1	Renilla control light, replicate 2	Call
betaGlu	1	89613	73734	5.20e5	4.30e5	inactive
Arl6IP1	1	1.17e5	1.08e5	1.87e6	2.26e6	inactive
spel1	1	1.68e5	1.89e5	1.78e6	1.81e6	inactive
CG3199	1	2.06e5	1.28e5	2.66e6	1.92e6	inactive
spel1	2	3.43e5	4.10e5	8.10e5	8.10e5	inactive
betaGlu	2	6.40e5	7.36e5	4.85e5	8.28e5	inactive
Chd1	1	8.49e5	7.95e5	1.73e6	1.24e6	inactive
CG3199	2	9.85e5	8.82e5	1.46e6	9.61e5	inactive
